The target in this assay is T1, endogenous Polι (MRC5 fibroblasts) (human (endogenous in MRC5)) (UniProt Q9UNA4).
T1 sequence: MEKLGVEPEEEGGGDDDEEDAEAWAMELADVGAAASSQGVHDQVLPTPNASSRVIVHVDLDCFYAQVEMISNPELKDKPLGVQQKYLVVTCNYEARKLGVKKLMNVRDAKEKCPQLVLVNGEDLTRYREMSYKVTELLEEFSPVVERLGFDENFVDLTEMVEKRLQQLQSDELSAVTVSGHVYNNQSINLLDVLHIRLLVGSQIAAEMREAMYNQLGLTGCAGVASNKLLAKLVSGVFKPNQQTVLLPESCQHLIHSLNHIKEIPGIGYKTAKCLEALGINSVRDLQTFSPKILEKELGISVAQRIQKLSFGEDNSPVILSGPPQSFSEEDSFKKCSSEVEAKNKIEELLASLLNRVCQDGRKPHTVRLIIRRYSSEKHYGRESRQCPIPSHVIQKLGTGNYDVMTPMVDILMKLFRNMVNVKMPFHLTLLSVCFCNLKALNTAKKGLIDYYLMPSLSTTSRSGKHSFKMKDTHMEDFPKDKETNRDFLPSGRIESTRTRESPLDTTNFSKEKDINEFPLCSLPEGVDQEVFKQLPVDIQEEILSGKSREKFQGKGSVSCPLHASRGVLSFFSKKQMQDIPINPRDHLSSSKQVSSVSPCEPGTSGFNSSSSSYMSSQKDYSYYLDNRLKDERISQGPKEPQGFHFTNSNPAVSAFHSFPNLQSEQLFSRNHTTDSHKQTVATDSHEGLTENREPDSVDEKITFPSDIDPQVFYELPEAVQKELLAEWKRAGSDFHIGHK
The assay is described as follows: proximity ligation; endogenous Polι and p300 in fixed MRC5 fibroblasts; primary antibodies for Polι and p300, anti-mouse MINUS and anti-rabbit PLUS probes; confocal microscopy.

By UniProt entry, the sequences of proteins in these tests, tags left out.
UniProt Q09472: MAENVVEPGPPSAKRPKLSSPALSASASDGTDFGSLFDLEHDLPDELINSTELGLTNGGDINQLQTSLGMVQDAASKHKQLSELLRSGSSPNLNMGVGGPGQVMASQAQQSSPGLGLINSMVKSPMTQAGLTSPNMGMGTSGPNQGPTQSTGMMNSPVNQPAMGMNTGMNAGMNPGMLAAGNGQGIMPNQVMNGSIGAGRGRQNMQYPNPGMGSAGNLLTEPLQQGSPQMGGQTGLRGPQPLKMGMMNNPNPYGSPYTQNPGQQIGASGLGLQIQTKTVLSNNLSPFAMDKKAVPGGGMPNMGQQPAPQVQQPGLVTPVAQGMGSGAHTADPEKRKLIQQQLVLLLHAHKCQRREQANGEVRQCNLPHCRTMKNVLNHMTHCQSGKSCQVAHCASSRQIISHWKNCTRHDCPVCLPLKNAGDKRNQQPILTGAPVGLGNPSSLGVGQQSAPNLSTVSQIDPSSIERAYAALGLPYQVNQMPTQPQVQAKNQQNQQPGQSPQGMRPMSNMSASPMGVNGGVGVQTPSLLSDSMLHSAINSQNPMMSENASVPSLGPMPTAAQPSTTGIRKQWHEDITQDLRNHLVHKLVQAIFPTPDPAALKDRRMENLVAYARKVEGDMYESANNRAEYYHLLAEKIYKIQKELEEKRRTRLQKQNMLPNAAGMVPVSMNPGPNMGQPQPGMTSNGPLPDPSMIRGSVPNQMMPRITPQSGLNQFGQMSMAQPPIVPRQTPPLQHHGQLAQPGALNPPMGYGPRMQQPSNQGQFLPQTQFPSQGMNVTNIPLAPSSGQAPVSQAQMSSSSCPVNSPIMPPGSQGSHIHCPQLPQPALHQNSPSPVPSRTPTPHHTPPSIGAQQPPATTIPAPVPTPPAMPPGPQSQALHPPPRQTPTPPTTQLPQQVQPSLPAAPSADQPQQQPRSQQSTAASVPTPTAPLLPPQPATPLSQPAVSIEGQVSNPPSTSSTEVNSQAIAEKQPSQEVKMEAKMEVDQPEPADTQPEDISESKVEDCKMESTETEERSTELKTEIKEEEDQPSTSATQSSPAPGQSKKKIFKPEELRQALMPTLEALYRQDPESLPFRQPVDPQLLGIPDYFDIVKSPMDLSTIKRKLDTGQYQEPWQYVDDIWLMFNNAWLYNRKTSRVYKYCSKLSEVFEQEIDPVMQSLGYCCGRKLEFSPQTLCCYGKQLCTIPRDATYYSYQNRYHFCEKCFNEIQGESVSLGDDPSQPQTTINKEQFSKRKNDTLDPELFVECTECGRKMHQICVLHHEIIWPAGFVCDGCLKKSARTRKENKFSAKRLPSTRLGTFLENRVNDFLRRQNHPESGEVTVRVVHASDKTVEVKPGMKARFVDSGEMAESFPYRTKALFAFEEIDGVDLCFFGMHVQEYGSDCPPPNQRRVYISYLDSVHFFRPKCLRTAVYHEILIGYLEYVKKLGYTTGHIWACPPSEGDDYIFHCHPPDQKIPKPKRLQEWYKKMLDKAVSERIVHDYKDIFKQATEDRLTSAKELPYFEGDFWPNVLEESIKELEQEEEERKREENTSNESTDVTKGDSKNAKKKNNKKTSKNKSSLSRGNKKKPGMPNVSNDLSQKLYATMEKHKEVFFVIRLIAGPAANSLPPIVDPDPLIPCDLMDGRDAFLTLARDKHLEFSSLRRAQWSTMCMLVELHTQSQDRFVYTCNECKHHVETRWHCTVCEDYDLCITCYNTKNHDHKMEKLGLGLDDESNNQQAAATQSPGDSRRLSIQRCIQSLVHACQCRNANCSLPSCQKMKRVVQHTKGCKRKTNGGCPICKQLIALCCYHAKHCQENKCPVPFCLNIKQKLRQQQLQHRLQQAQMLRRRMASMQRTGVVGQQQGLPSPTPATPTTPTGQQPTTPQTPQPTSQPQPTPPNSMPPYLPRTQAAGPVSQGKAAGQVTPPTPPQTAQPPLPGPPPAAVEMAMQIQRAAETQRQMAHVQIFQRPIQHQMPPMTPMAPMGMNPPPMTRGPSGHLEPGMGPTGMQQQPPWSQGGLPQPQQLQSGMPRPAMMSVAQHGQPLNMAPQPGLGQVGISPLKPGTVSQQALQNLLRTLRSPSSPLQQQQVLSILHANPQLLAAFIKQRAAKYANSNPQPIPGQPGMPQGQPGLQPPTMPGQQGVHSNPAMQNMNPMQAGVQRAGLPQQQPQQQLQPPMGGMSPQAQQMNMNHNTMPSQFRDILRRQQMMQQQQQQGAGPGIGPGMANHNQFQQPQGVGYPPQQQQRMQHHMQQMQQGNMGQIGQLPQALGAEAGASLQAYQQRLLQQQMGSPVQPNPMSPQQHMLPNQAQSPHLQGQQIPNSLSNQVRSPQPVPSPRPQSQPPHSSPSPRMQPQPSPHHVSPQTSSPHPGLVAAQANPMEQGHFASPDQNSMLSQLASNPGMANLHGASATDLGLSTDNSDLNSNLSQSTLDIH

Drawing on paper PMC6423139, this text covers binding for 1 substance.

These are yes or no findings as the source states them, for the method shown. In cells and extracts the contact can be indirect. Some results given as binding are weak or reduced against the parent protein; the word gives no strength.

Turning to “endogenous p300 (MRC5 fibroblasts) (from UniProt Q09472 1-2414) (enzyme)”, the binding entry is reported as “binds”.
